PubChem BioAssay AID686943, Drosophila RNAi Screening Center | 2013

Assay: 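Fly genes whose loss alters ERK activation after insulin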 (primary screen)
Cell system: Drosophila S2R+ haemocyte-like cells expressing YFP-tagged ERK (Rolled)
Reagent: long dsRNA against Drosophila genes
Conditions: insulin stimulation versus unstimulated cells; dose and duration not given
Detection: 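Per-plate z-scores of phospho-ERK immunostaining normalised to YFP-tagged ERK, measured with and without insulin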
Direction: replicate 1, z-score of dpERK with insulin and replicate 2, z-score of dpERK with insulin: higher = more active ERK per ERK-YFP after insulin; replicate 1, z-score of dpERK under basal conditions: higher = more basal active ERK per ERK-YFP
The screen tested about 23,000 reagents; below is an unselected part of those with a known target gene and a result. 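Extra replicates exist only for a retested subset of genes; insulin dose and duration not given; both raised and lowered dpERK matter.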 A plus sign joins genes that one reagent is predicted to hit. Further read-outs or replicates are left out here. No sequences are given here. The record does not give: the amount of reagent, the time to read-out.

gene	amplicon	replicate 1, z-score of dpERK with insulin	replicate 2, z-score of dpERK with insulin	replicate 1, z-score of dpERK under basal conditions
CG14190	DRSC19545	0.31	-0.18	0.08
St2	DRSC15142	1.37	0.92	-0.13
St2	DRSC22624	0.03	0.35	-1.05
Or85b	DRSC16765	0.14	0.96	-0.69
CG9150	DRSC03148	0.46	1.08	1.03
CG3860	DRSC04425	0.58	0.67	-1.05
CG14718	DRSC14941	-0.41	0	-0.12
CG6415	DRSC02954	0.9	0.74	0.7
Pa1	DRSC19422	0.2	0.15	0.03
CG34041	DRSC22276	0.29	0.27	-0.69
CG42703	DRSC03973	0.58	1.47	
rl	DRSC07833	-0.18	-0.88	2.51
rl	DRSC20742	-0.75	1.54	3.65
rl	DRSC21814	-2.79	-1.66	5.29
nAChRbeta1	DRSC08097	0.11	0.07	1.03
nAChRbeta1	DRSC08728	-0.17	2.13	-1.42
CG34334	DRSC20643	-1.6	-0.94	-0.39
Gr59e	DRSC04276	0.69	0.7	0.16
sas	DRSC12631	1.12	0.54	-0.38
lncRNA:CR32553	DRSC19229	0.08	0.09	-0.17
CG31464	DRSC14345	1.08	0.43	-0.48
CG14546	DRSC14890	0.26	-0.06	0.06
Mms19	DRSC12188	0.32	0.03	0
fdl	DRSC07279	0.29	-0.03	0.14
CG11251	DRSC09825	-0.54	-0.08	-1.15
Upf3	DRSC04092	-1.24	-0.82	1.37
CG10098	DRSC12509	0.16	-0.8	-0.22
Ir56d	DRSC06590	0.96	0	-0.4
CG31659	DRSC00760	-0.04	0.67	-0.12
Pfrx	DRSC18856	0.93	0.19	0.23
Pfrx	DRSC19315	0.3	0.96	-0.92
Dscam1	DRSC05047	-0.92	-0.2	1.77
Dscam1	DRSC05048	0.29	0.07	-0.52
Dscam1	DRSC07407	0.29	0.34	-0.31
Dscam1	DRSC21562	0.21	0.47	0.18
Dscam1	DRSC22383	-1.03	0.11	0.54
fabp + sea	DRSC16114	-0.64	-0.54	-0.4
fabp + sea	DRSC16115	-0.04	-1.38	-0.24
CG15202	DRSC19649	0.05	0.61	0.85
HDAC4	DRSC19780	1.12	0.11	0
beta-PheRS	DRSC15859	-0.45	-0.25	-0.33
CG31872	DRSC02568	-0.53	-0.54	0.21
CG31872	DRSC02572	0.74	0.85	-0.12
CG11109	DRSC11633	0.34	-0.72	-0.8
CG11294	DRSC17777	0.13	-0.16	-0.69
Prosbeta5	DRSC07517	-1.48	-3.35	-1.8
HP6	DRSC00471	0.2	-0.26	-0.79
CG11449	DRSC11662	-0.35	2.62	-0.46
CG5191	DRSC15733	-0.04	-0.16	-0.23
CG5191	DRSC15734	0.94	0.29	-0.02
CG5191	DRSC21559	1.25	1.09	1.64
mRpL2	DRSC10896	-0.42	-0.5	-0.9
CG12817 + CG12420	DRSC22814	0.96	1.04	1.01
Desat2	DRSC15919	0.77	-0.25	0.6
Or46a + asRNA:CR43467	DRSC07489	0.1	-0.22	-0.74
Or46a + asRNA:CR43467	DRSC07490	0.13	0.16	-0.26
Or46a + asRNA:CR43467	DRSC21590	-0.04	-0.19	-0.37

A portion of the results above, as a working copy:
gene	amplicon	replicate 1, z-score of dpERK with insulin	replicate 2, z-score of dpERK with insulin	replicate 1, z-score of dpERK under basal conditions
rl	DRSC07833	-0.18	-0.88	2.51
rl	DRSC20742	-0.75	1.54	3.65
rl	DRSC21814	-2.79	-1.66	5.29
nAChRbeta1	DRSC08097	0.11	0.07	1.03
nAChRbeta1	DRSC08728	-0.17	2.13	-1.42
CG34334	DRSC20643	-1.6	-0.94	-0.39
Gr59e	DRSC04276	0.69	0.7	0.16
